Measurements: PubChem BioAssay AID662 (National Center for Advancing Translational Sciences (NCATS), 2007)
This is one part of the list. Shown are side measurements of this screen, not its main read-out; they come without a call. Compounds called inactive in the main read-out are mostly missing here. Potencies come from curve fits of mixed quality, noted in brackets.

experiment: Cell signaling CRE-BLA (Fsk stim); settings: CHO CRE-bla reporter (cAMP response element driving beta-lactamase), forskolin EC10, beta-lactamase ratio; measured here: 460 nm blue channel
Procedure, shortened: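 Modulation of forskolin-driven signalling is measured in CHO cells carrying a CRE-controlled beta-lactamase reporter. Cells are stimulated with EC10 NKH 477 in the presence of titrated compound for 3 h at 37 °C, then loaded with CCF4 for 2 h at room temperature.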

**Q.** With `CCOC(=O)C1=C(C)NC2=C(C(=O)C(C(=O)OCC)C(c3ccco3)C2)C1c1ccccn1` (stereo not drawn) as the molecule, how does the AC50 read?
**A.** Its AC50 is 12.6 µM [rising, partial curve].

**Q.** With `COC(=O)c1c(NC(=O)CN2CCOCC2)sc2c1CCC(C)C2` (stereo not drawn) as the molecule, how does the AC50 read?
**A.** The AC50 was 5.01 µM [rising, single point].

**Q.** For `COc1cccc(Nc2ncc3nc(-c4cccs4)c(=O)n(-c4ccccc4)c3n2)c1`, which AC50 is on record?
**A.** The AC50 was 1.58 µM [rising, full curve].

**Q.** With `COc1ccc(C2c3c(oc4ccccc4c3=O)C(=O)N2c2ccc(C)cn2)cc1OC` (stereo not drawn) as the molecule, how does the AC50 read?
**A.** Its AC50 is 10 µM [rising, partial curve].

**Q.** For `Cc1c(C(=O)Nc2ccc3c(c2)OCCO3)sc2nc(-c3ccccc3)cn12`, which AC50 is on record?
**A.** The AC50 was 15.8 µM [falling, single point].

**Q.** With `Cc1cc(OCc2nc(-c3cccnc3)no2)c(C)cc1Br` as the molecule, how does the AC50 read?
**A.** Its AC50 is 0.0316 µM [rising, full curve, poor fit].

**Q.** For `N#C[C@H]1CN[C@H](N)N[C@@H]1N`, which AC50 is on record?
**A.** The AC50 was 0.0631 µM [rising, full curve, poor fit].

**Q.** Which AC50 does the source give for `CCc1c(C)sc(NC(=O)c2ccc(Br)o2)c1C(=O)OC` here?
**A.** Its AC50 is 10 µM [rising, partial curve].

**Q.** Which AC50 does the source give for `Cc1ccnc(Sc2nc3c(c(=O)[nH]c(=O)n3C)n2CCCc2ccccc2)n1` here?
**A.** Its AC50 is 10 µM [rising, single point].

**Q.** With `CCNc1ncc2nc(-c3ccc(Cl)cc3)c(=O)n(C3CC3)c2n1` as the molecule, how does the AC50 read?
**A.** Its AC50 is 3.98 µM [rising, partial curve].

**Q.** For `COc1ccc(C(c2sc3ncnn3c2O)N2CCN(c3ccccc3F)CC2)cc1OC` (stereo not drawn), which AC50 is on record?
**A.** The AC50 was 7.94 µM [rising, partial curve].

**Q.** With `COc1cc(-c2nc(S(=O)(=O)c3ccc(C)cc3)c(N3CCOCC3)o2)cc(OC)c1OC` as the molecule, how does the AC50 read?
**A.** Its AC50 is 1.26 µM [rising, full curve].

**Q.** Which AC50 does the source give for `O=C(Nc1cccc(-c2nc3cc(Cl)ccc3o2)c1)C1CCCO1` (stereo not drawn) here?
**A.** The AC50 was 10 µM [rising, partial curve].

**Q.** With `C/C(N)=C(/C#N)C(=O)CSc1nnc(Nc2cccc(C)c2C)s1` as the molecule, how does the AC50 read?
**A.** The AC50 was 3.98 µM [rising, single point].

**Q.** With `COc1ccc(-c2nc3cnc(N4CCOCC4)nc3n(CCc3ccccc3)c2=O)cc1` as the molecule, how does the AC50 read?
**A.** The AC50 was 3.16 µM [rising, partial curve].

**Q.** Which AC50 does the source give for `Cc1c(-c2ccc(Cl)cc2)noc1C1CCN(CCc2ccccc2)CC1` here?
**A.** The AC50 was 25.1 µM [falling, single point].

**Q.** For `O=c1c(-c2ccc(F)cc2)nc2cnc(Nc3ccccc3)nc2n1C[C@H]1CCCO1`, which AC50 is on record?
**A.** The AC50 was 0.2 µM [rising, full curve].

**Q.** Which AC50 does the source give for `Cc1nc2cnc(Oc3cccc(Cl)c3)nc2n(Cc2ccc(F)cc2)c1=O` here?
**A.** The AC50 was 5.01 µM [rising, partial curve].

**Q.** For `CCNc1nc(Oc2ccc(=O)n(C)n2)nc(N2CCOCC2)n1`, which AC50 is on record?
**A.** Its AC50 is 20 µM [rising, single point].

**Q.** For `COc1ccccc1NC(=O)c1oc2ccccc2c1NC(=O)c1ccco1`, which AC50 is on record?
**A.** Its AC50 is 10 µM [rising, single point].

**Q.** For `C=C(C)Cn1c(N2CCCC2)nc2c1c(=O)[nH]c(=O)n2C`, which AC50 is on record?
**A.** The AC50 was 10 µM [rising, partial curve].

**Q.** Which AC50 does the source give for `O=[n+]1c2c(n([O-])c3cc(Br)ccc31)CCC2` here?
**A.** Its AC50 is 25.1 µM [falling, single point].

**Q.** With `CCCc1ccc(C(=O)CCC(=O)O)cc1` as the molecule, how does the AC50 read?
**A.** Its AC50 is 0.00398 µM [falling, full curve, poor fit].

**Q.** Which AC50 does the source give for `COc1ccc(CNC(=O)c2noc3c2CCCCC3)cc1` here?
**A.** Its AC50 is 5.01 µM [rising, single point].

**Q.** For `O=C(NCc1ccco1)c1ccccc1Nc1ccc(F)cc1`, which AC50 is on record?
**A.** The AC50 was 3.98 µM [falling, partial curve].

**Q.** With `Cc1nc(SCC(=O)N(C)Cc2ccco2)c2c(C)c(C)sc2n1` as the molecule, how does the AC50 read?
**A.** The AC50 was 10 µM [rising, partial curve].

**Q.** With `O=C(Nc1ccncc1)c1cc2ccccc2oc1=O` as the molecule, how does the AC50 read?
**A.** The AC50 was 0.0794 µM [rising, partial curve].

**Q.** With `CC(NS(=O)(=O)c1ccc(Cl)cc1)C(c1cccs1)N1CCN(C)CC1` (stereo not drawn) as the molecule, how does the AC50 read?
**A.** Its AC50 is 25.1 µM [falling, single point].

**Q.** Which AC50 does the source give for `CC1(C)O[C@H]2C[C@@H]3[C@H]4CCC5=CC(=O)CC[C@@]5(C)[C@]4(F)[C@@H](O)C[C@@]3(C)[C@@]2(C(=O)CCl)O1` here?
**A.** The AC50 was 12.6 µM [falling, single point].

**Q.** With `Cc1cccn2c(=O)c(C=Nc3ccccc3)c(NCc3ccco3)nc12` as the molecule, how does the AC50 read?
**A.** Its AC50 is 10 µM [rising, partial curve].

**Q.** For `COc1ccc(C2C(=O)N(C3CCCCC3)CC(=O)N2Cc2ccco2)cc1` (stereo not drawn), which AC50 is on record?
**A.** The AC50 was 2.51 µM [falling, single point].

**Q.** With `CN(C)c1ncc2nc(-c3ccc(Cl)cc3)c(=O)n(C[C@H]3CCCO3)c2n1` as the molecule, how does the AC50 read?
**A.** Its AC50 is 3.98 µM [rising, partial curve].

**Q.** For `CC(=O)O[C@H]1C(=O)[C@@]2(C)[C@H]([C@H](OC(=O)c3ccccc3)[C@]3(O)C[C@H](OC(=O)[C@H](O)[C@@H](NC(=O)c4ccccc4)c4ccccc4)C(C)=C1C3(C)C)[C@]1(OC(C)=O)CO[C@@H]1C[C@@H]2O`, which AC50 is on record?
**A.** The AC50 was 0.0794 µM [rising, full curve, poor fit].

**Q.** Which AC50 does the source give for `COc1ccc2[nH]cc(CCNc3cc(-c4cccc(C#N)c4)ncn3)c2c1` here?
**A.** Its AC50 is 10 µM [rising, partial curve, poor fit].

**Q.** With `CCOC(=O)c1c(-c2cccs2)csc1NC(=O)CN1CCOCC1` as the molecule, how does the AC50 read?
**A.** The AC50 was 10 µM [rising, partial curve].

**Q.** With `COc1ccc(N(C)S(=O)(=O)c2cccc(C(=O)Nc3ccc(-n4cnnn4)cc3)c2)cc1` as the molecule, how does the AC50 read?
**A.** The AC50 was 25.1 µM [falling, single point].

**Q.** For `CCCn1c(N)c(C(=O)COC(=O)c2c(C)noc2C)c(=O)n(C)c1=O`, which AC50 is on record?
**A.** Its AC50 is 5.01 µM [falling, single point].

**Q.** Which AC50 does the source give for `COC(=O)c1ccc(C2CC(=O)Nc3cc(OC)c(OC)cc32)cc1` (stereo not drawn) here?
**A.** Its AC50 is 12.6 µM [rising, partial curve, poor fit].

**Q.** For `O=C1CC(Sc2nnc(-c3ccccc3O)o2)C(=O)N1c1ccccc1` (stereo not drawn), which AC50 is on record?
**A.** The AC50 was 25.1 µM [falling, single point].

**Q.** With `Cc1cc(C)cc(-n2cc3c(=O)n(C)c(=O)n(C)c3c2)c1` as the molecule, how does the AC50 read?
**A.** The AC50 was 15.8 µM [rising, partial curve].

**Q.** With `Nc1nc(CN2CCN(c3ccccc3F)CC2)nc(Nc2ccccc2)n1` as the molecule, how does the AC50 read?
**A.** The AC50 was 10 µM [falling, partial curve].

**Q.** With `COc1ccc2nc3c(cc2c1)c(NC(=O)C1CCCO1)nn3CC(C)C` (stereo not drawn) as the molecule, how does the AC50 read?
**A.** Its AC50 is 10 µM [rising, partial curve].

**Q.** With `COc1nc(-c2ccccc2)cc(-c2ccc(OC)c(OC)c2)n1` as the molecule, how does the AC50 read?
**A.** Its AC50 is 0.158 µM [rising, partial curve].

**Q.** Which AC50 does the source give for `CC[C@H](C)[C@@H]1O[C@]2(CC[C@@H]1C)C[C@H]1C[C@H](CC=C(C)[C@@H](O[C@H]3C[C@H](OC)[C@H](O[C@H]4C[C@H](OC)[C@H](O)[C@H](C)O4)[C@H](C)O3)[C@@H](C)C=CC=C3CO[C@@H]4[C@@H](O)C(C)=C[C@H](C(=O)O1)[C@@]34O)O2` here?
**A.** Its AC50 is 15.8 µM [falling, partial curve].

**Q.** With `CC(=O)c1c(C(C)=O)c(C)n(CCCCn2c(C)c(C(C)=O)c(C(C)=O)c2C)c1C` as the molecule, how does the AC50 read?
**A.** Its AC50 is 0.00631 µM [falling, full curve, poor fit].

**Q.** Which AC50 does the source give for `Cc1nn(-c2nc3ccccc3s2)c(N)c1-c1ccc(Cl)cc1` here?
**A.** The AC50 was 0.0398 µM [rising, full curve, poor fit].

**Q.** With `O=S(=O)(NC1CCCCC1)c1ccc(S(=O)(=O)N2CCN3CCCC3C2)cc1` (stereo not drawn) as the molecule, how does the AC50 read?
**A.** Its AC50 is 3.98 µM [falling, single point].

**Q.** With `CC1CCCC(C)N1C(=O)COC(=O)c1ccc[nH]c1=O` (stereo not drawn) as the molecule, how does the AC50 read?
**A.** The AC50 was 3.98 µM [falling, partial curve].

**Q.** Which AC50 does the source give for `Cn1nc(CC(=O)Nc2ccc(N3CCN(C(=O)OC(C)(C)C)CC3)cc2)c2ccccc2c1=O` here?
**A.** Its AC50 is 25.1 µM [falling, single point].

**Q.** With `Cc1cnc(CNc2ccnc(-c3cccc(C#N)c3)n2)cn1` as the molecule, how does the AC50 read?
**A.** Its AC50 is 10 µM [rising, partial curve].

**Q.** With `CC(=O)C1=C(O)C(=O)N(CCN2CCOCC2)C1c1ccccc1` (stereo not drawn) as the molecule, how does the AC50 read?
**A.** Its AC50 is 0.1 µM [falling, full curve, poor fit].

**Q.** Which AC50 does the source give for `Cc1ccc2c(c1)c1cccc3c1n2CCN3CCC(N)=O` here?
**A.** Its AC50 is 12.6 µM [rising, partial curve].

**Q.** Which AC50 does the source give for `CCN(CC)CCNC(=O)CCn1c(=S)[nH]c2cc3c(cc2c1=O)OCO3` here?
**A.** The AC50 was 5.01 µM [falling, single point].

**Q.** With `Cc1cc(C)c2c(N)c(C(=O)NCc3ccco3)sc2n1` as the molecule, how does the AC50 read?
**A.** Its AC50 is 3.16 µM [falling, full curve].

**Q.** For `Cc1cc(C(=O)N2CCc3ccccc32)c2cc(F)ccc2n1`, which AC50 is on record?
**A.** The AC50 was 0.2 µM [rising, full curve].

**Q.** Which AC50 does the source give for `CCN(CC)c1nc2cc(OC)ccc2cc1C#N` here?
**A.** Its AC50 is 12.6 µM [rising, partial curve].

**Q.** For `Cc1c(C(=O)NCc2cccnc2)sc2nc(-c3ccc(F)cc3)cn12`, which AC50 is on record?
**A.** The AC50 was 3.98 µM [rising, full curve].

**Q.** With `Cc1noc(/C=C/c2ccco2)c1S(=O)(=O)N1CCC(C(=O)N(C)Cc2ccccc2)CC1` as the molecule, how does the AC50 read?
**A.** Its AC50 is 3.16 µM [rising, single point].

**Q.** Which AC50 does the source give for `CCOC(=O)C(C)Sc1nc2ccccc2c(=O)n1CC` (stereo not drawn) here?
**A.** Its AC50 is 20 µM [rising, single point].

**Q.** Which AC50 does the source give for `COc1ccc(-n2c(Cc3cccn3C)nnc2SCC(=O)Nc2ccc(C)cc2)cc1` here?
**A.** The AC50 was 15.8 µM [falling, partial curve].

**Q.** For `COC(=O)COc1nsnc1N1CCOCC1`, which AC50 is on record?
**A.** The AC50 was 25.1 µM [rising, single point].

**Q.** With `O=C(Nc1sc2c(c1C(=O)NCc1cccnc1)CCCC2)c1ccco1` as the molecule, how does the AC50 read?
**A.** The AC50 was 0.631 µM [rising, partial curve].

**Q.** For `COc1ccc(OC)c(NS(=O)(=O)c2ccc(NC(=O)C3COc4ccccc4O3)cc2)c1` (stereo not drawn), which AC50 is on record?
**A.** Its AC50 is 5.01 µM [falling, partial curve, poor fit].
